For at least one compound, name, drawing or mass did not settle the structure.
Legend:
BGMK = format: cell-based, primate
4T1 = format: cell-based, mouse
B16F10 = format: cell-based, mouse
PC3 = format: cell-based, human
MCF-7 = format: cell-based, human
M14 = format: cell-based, human
Colo205 = format: cell-based, human
[1] = test system: normal human fibroblasts A9; format: cell-based
[2] = test system: tumour cells that are restrictive for Myxoma infection; format: cell-based, human
786-0 cells = format: cell-based, human

## CO[C@H]1C[C@@H]2CC[C@@H](C)[C@@](O)(O2)C(=O)C(=O)N2CCCC[C@H]2C(=O)O[C@H]([C@H](C)C[C@@H]2CC[C@@H](O)[C@H](OC)C2)CC(=O)[C@H](C)/C=C(\C)[C@@H](O)[C@@H](OC)C(=O)[C@H](C)C[C@H](C)/C=C/C=C/C=C/1C [rapamycin]
BGMK
  effect of rapamycin pretreatment on Myxoma virus infection: little effect
4T1
  effect of rapamycin on replication of myxoma virus (virus titre by foci formation on BGMK cells): enhance
B16F10
  effect of rapamycin on replication of myxoma virus (virus titre by foci formation on BGMK cells): enhance
PC3
  effect of rapamycin on replication of myxoma virus (virus titre by foci formation on BGMK cells): marginally
MCF-7
  effect of rapamycin on replication of myxoma virus (virus titre by foci formation on BGMK cells): Some effect
  effect of rapamycin pretreatment on virus infectivity: enhance
M14
  effect of rapamycin on replication of myxoma virus (virus titre by foci formation on BGMK cells): not
Colo205
  effect of rapamycin on replication of myxoma virus (virus titre by foci formation on BGMK cells): Some effect
[1]
  effect of rapamycin pretreatment on Myxoma virus infection: little effect
[2]
  ability of the MT-5 knock-out Myxoma virus to replicate after pretreatment with rapamycin: restoration
  ability of the wild type virus to replicate after treatment with rapamycin: enhanced
786-0 cells
  kinase activity of AKT-1, Raf-1, GSK-3β and mTOR: increase
  kinase activity of PTEN and p70S6K: decrease

Source: patent US9987315B2 (priority 2005, dated 2018)
